# PubChem BioAssay AID504834 (National Center for Advancing Translational Sciences (NCATS), 2011)
# Values joined by “and” are separate entries in the source; they are usually repeats but may differ in a detail not shown here. Equal values may be shown once. Out of some 320,000 compounds screened, about 22,000 (6.9%) were called active. The inconclusive results got no clear call from the source; some entries with a clear call stand among them for comparison. Calls follow the shape of the dose curve; as a rule, active = well fitted inhibition curve with a large enough effect; inconclusive = small, poorly fitted or top-dose-only effect, or another doubt; inactive = no such curve, though single readings can be large or run the other way. Potencies beside an inconclusive call are fits to weak or partial responses and may not hold up.
# Experiment: Primary qHTS for delayed death inhibitors of the malarial parasite plastid, 96 hour incubation
# Conditions: P. falciparum luciferase reporter growth; series mostly up to 28.7 µM
# In short: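 Readout is luminescence from an integrated firefly luciferase in P. falciparum. Red cells, 2% hematocrit and 0.05% parasitemia final, were cultured with compound through two parasite generations (96 hours) at 37 C, 5% CO2.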
# Potency is read from the fitted curve at half-maximal effect.
row,SMILES,Potency
1,CN(C)c1ccc(/C=c2/sc3n(c2=O)NC2(c4ccccc4)N(C)C(=O)N(C)C2(c2ccccc2)N=3)cc1 (centres undefined),"inconclusive: 2.94 µM [inhibitor, full curve]"
2,COc1ccc(CCNC(=O)c2c([S-])n(-c3ccc(C)cc3)c3cccc[n+]23)cc1,active: 10.4 µM
3,COCCN(CC(=O)Nc1cccc(C)c1C)C(=O)Cn1c(=O)cnc2ccccc21,inactive
4,O=C(Nc1cnccn1)Nc1cccc(Cl)c1Cl,"inconclusive: 2.08 µM [inhibitor, partial curve, poor fit]"
5,Cc1noc(C)c1CSCC(=O)Oc1ccc(N(C)S(=O)(=O)c2ccc(Cl)cc2)cc1,inactive
6,Cc1nnc(Nc2ccc(C(=O)NCCO)cc2)c2ccccc12,"inconclusive: 18.5 µM [inhibitor, single point]"
7,COc1ccc(C(=O)NC(C)c2nc3ccccc3[nH]2)cc1OC (centres undefined),"inconclusive: 11.7 µM [inhibitor, single point]"
8,Cc1cccc(C)c1NC(=O)Cn1c(=O)n(CCCC(=O)NCc2ccco2)c(=O)c2sccc21,inactive
9,C/C(=C(/CCOC(=O)C(C)C)SS/C(CCOC(=O)C(C)C)=C(\C)N(C=O)Cc1cnc(C)nc1N)N(C=O)Cc1cnc(C)nc1N,"inconclusive: 5.36 µM [inhibitor, partial curve]"
10,CCc1ccccc1OCC(=O)Nc1cccc(S(=O)(=O)N2CCCC2)c1,"inconclusive: 5.22 µM [inhibitor, single point]"
11,CCCCOc1ccc(-c2nnn(CC(=O)c3c[nH]c4ccccc34)n2)cc1,"inconclusive: 0.0047 µM [inhibitor, full curve, poor fit]"
12,COc1ccc(OC)c(C2C(C(=O)Nc3ccccc3OC)=C(C)Nc3nc(CCCO)nn32)c1 (centres undefined),"inconclusive: 0.415 µM [inhibitor, partial curve, poor fit]"
13,O=c1[nH]c(=O)n(Cc2ccccc2)c2nc(-c3ccc(C(F)(F)F)cc3)n(CCO)c12,"inconclusive: 0.0738 µM [inhibitor, full curve, poor fit]"
14,CCCOC(=O)Nc1ccc(N2CCCCC2)cc1,inactive
15,O=C(CSc1nncs1)NNC(=O)c1ccco1,inactive
16,O=C(Cc1ccc(Cl)cc1)NNC(=O)c1ccco1,"inconclusive: 3.29 µM [inhibitor, full curve]"
17,Cc1ccc(S(=O)(=O)c2cc3c(=O)n4cccc(C)c4nc3n(Cc3ccco3)c2=N)cc1C,"inconclusive: 7.38 µM [inhibitor, partial curve, poor fit]"
18,O=C1CSC(c2ccc([N+](=O)[O-])cc2)N1CCN1CCCCC1 (centres undefined),"inconclusive: 18.5 µM [inhibitor, single point]"
19,COc1cc([N+](=O)[O-])cc(CN2CCCCC2)c1O,"inconclusive: 18.5 µM [inhibitor, single point]"
20,O=C(CCc1nc2cccnc2n1Cc1ccccc1)N1CCOCC1,"inconclusive: 18.5 µM [inhibitor, single point]"
21,Cc1ccc(NC(=O)CS(=O)Cc2nc(-c3ccc(C)cc3)oc2C)cc1 (centres undefined),inactive
22,COc1cc(-c2noc(C)c2C#Cc2ccsc2)cc(OC)c1OC,"inconclusive: 10.4 µM [inhibitor, partial curve]"

# Reformatted as tab-separated lines: two of the compounds above
row	SMILES	Potency
2	COc1ccc(CCNC(=O)c2c([S-])n(-c3ccc(C)cc3)c3cccc[n+]23)cc1	active: 10.4 µM
18	O=C1CSC(c2ccc([N+](=O)[O-])cc2)N1CCN1CCCCC1 (centres undefined)	inconclusive: 18.5 µM [inhibitor, single point]

# Additional records:

row,SMILES,Potency
1,CC(C)CC(=O)Nc1ccc(C(=O)Nc2cccc(O)c2)cc1,"inconclusive: 16.5 µM [inhibitor, single point]"
2,COc1cc(/C=C/[N+](=O)[O-])ccc1OC(=O)/C=C/c1ccc(F)cc1,inactive
3,O=[N+]([O-])c1ccc(CNc2ccc(Cl)cc2)s1,"inconclusive: 18.5 µM [inhibitor, single point]"
4,Cn1cccc1Cc1nnc(SCC(N)=O)n1CCc1ccccc1,"inconclusive: 10.4 µM [inhibitor, single point]"
5,COc1ccc(CNC(=O)CN2C(=O)C3C4C=CC(C4)C3C2=O)cc1 (centres undefined),"inconclusive: 20.8 µM [inhibitor, single point]"
6,COc1ccc(-n2nc(C(=O)NCC(=O)N3CC(C)CC(C)C3)c3ccccc3c2=O)cc1OC (centres undefined),active: 1.65 µM
7,CC(/C=C/c1ccc(O)cc1)=N/O,"inconclusive: 13.1 µM [inhibitor, partial curve, poor fit]"
8,COc1ccc(Cn2cccc(NC(=O)Nc3ccc(F)cc3)c2=O)cc1,inactive
9,CCN1/C(=C/C=C/C=C/c2sc3ccccc3[n+]2CC)Sc2ccccc21,active: 928 nM and active: 3.38 µM
10,Nc1nc(SCC(=O)Nc2ccc3c(c2)OCO3)n[nH]1,inactive
11,CC1CCc2[nH]c3ccc(C(=O)Nc4ccc(C(=O)N(C)C)cc4)cc3c2C1 (centres undefined),"inconclusive: 13.1 µM [inhibitor, single point]"
12,CCOc1ccc(C(C)=O)cc1NC(=O)/C=C\C(=O)O,active: 10.4 µM
13,O=C(Oc1cc2oc(=O)cc(-c3ccccc3)c2cc1Cl)C1CCCCC1,"inconclusive: 0.522 µM [inhibitor, full curve, poor fit]"
14,O=C1C(Cc2cccc([N+](=O)[O-])c2)S/C(=N/N=C/c2ccco2)N1c1ccccc1 (centres undefined),inactive
15,Cc1ccc(-c2ccc(=O)n(CC(=O)NCCN(CC(C)C)CC(C)C)n2)cc1,inactive
16,C[C@H](NC(=O)c1nc[nH]c1C(=O)N[C@@H](C)C(=O)OC(C)(C)C)C(=O)OC(C)(C)C,"inconclusive: 16.5 µM [inhibitor, single point]"
17,Cc1nonc1C1CCCN1Cc1nc(-c2ccc(F)cc2F)oc1C (centres undefined),"inconclusive: 18.5 µM [inhibitor, single point]"
18,O=C1CSC(=S)N1CC1CCCO1 (centres undefined),inactive
19,O=C(NC1CCCc2ccccc21)c1n[nH]c(=O)c2ccccc12 (centres undefined),"inconclusive: 13.1 µM [inhibitor, partial curve]"
20,C/C(=C\C=C(C#N)C#N)c1cc(C#N)c(N)o1,"inconclusive: 11.7 µM [inhibitor, single point]"
21,O=C(Nc1ccccc1F)Nc1ccccc1N1CCCCC1,"inconclusive: 9.28 µM [inhibitor, single point]"
22,O=C(CSc1nccc(=O)[nH]1)N1CCN(c2ccccc2)CC1,"inconclusive: 7.38 µM [inhibitor, partial curve]"

# In another format: results already given
row	SMILES	Potency
2	COc1cc(/C=C/[N+](=O)[O-])ccc1OC(=O)/C=C/c1ccc(F)cc1	inactive
22	O=C(CSc1nccc(=O)[nH]1)N1CCN(c2ccccc2)CC1	inconclusive: 7.38 µM [inhibitor, partial curve]
